{"sequences": {"note": "By UniProt entry, the sequences of proteins in these tests, tags left out. Where a name states a change or a piece, a line headed by the entry shows the natural chain unless it says otherwise.", "UniProt P02647": "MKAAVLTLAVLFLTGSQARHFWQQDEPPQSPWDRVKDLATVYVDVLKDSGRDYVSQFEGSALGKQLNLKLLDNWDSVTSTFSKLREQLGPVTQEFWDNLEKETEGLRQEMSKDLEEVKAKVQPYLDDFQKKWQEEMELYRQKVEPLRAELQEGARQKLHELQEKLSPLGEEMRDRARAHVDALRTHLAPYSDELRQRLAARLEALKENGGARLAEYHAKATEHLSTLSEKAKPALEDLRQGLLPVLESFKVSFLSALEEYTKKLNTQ"}, "source": "patent US10961286B2", "about": "“Nucleic acids, vectors, host cells, and methods for recombinantly producing water-soluble membrane proteins” (CORNELL UNIVERSITY, priority 2014, dated 2021)", "target": "T1, EmrE (dimeric, detergent-free OspA-EmrE-ApoAI*) (UniProt P02647+P23895)", "T1 construct": "made in house; host or cells: E. coli BL21(DE3), pET28a", "experiment": "Ligand binding by tryptophan fluorescence quenching, in vivo solubilized EmrE", "set-up": "species or system E. coli", "settings": "10 μM protein; EmrE comparator in DDM buffer", "protocol": "Fluorescence spectra of protein samples were collected using a Fluorolog-Tau-3 time-resolved spectrofluorometer (Horiba). Protein concentration of OspA-EmrE-ApoAI* in SEC buffer and EmrE in DDM containing buffer (20 mM Tris-HCl, pH 7.5, 150 mM NaCl, and 0.08% w/v DDM) was 10 μM. Fluorescence spectra using a 295-nm excitation were collected after each volume of ligand. A small magnetic stir bar was added to the 1-cm path-length quartz cuvette containing either the sample or buffer. The stirring speed was set such that the surface was not noticeably disturbed. Approximately 1 min was allowed between the addition of ligand and the beginning of spectra collection. […] Quenching of fluorescence was recorded and plotted using GraphPad PRISM 6.\nIt was next determined whether EmrE that had been solubilized by fusion to ApoAI* was able to bind to known ligands. […] There are a total of 14 aromatic amino acids in EmrE (4 tryptophans, 5 tyrosines, and 5 phenylalanines), some of which participate in ligand binding and protein stability and permit determination of binding constants based on fluorescence quenching (Bay et al., “Spectroscopic Analysis of Small Multidrug Resistance Protein EmrE in the Presence of Various Quaternary Cation Compounds,” Biochim. Biophys. Acta 1818:1318-31 (2012), which is hereby incorporated by reference in its entirety). […]", "note": "At least one compound was matched to its structure with a doubt left.", "data": [{"molecule": "CC[n+]1c(-c2ccccc2)c2cc(N)ccc2c2ccc(N)cc21", "note": "[EtBr, ethidium bromide]", "values": [{"measurement": "binding affinity of OspA-EmrE-ApoAI* compared to detergent-solubilized EmrE", "result": "very similar"}]}]}
